In patent US5281263A, “Azo dyes containing a carboxy group” (Imperial Chemical Industries PLC, priority 1991, dated 1994):

Experiments:
[1] = water fastness of image printed on paper with an ink containing the dye; details: for water fastness of printed image: 3 parts compound in water (92.5 parts) and diethylene glycol (7.5 parts)
[2] = shade, bronzing and optical density of image printed on paper with an ink containing the dye
[3] = plain paper, thermal ink jet, 3 parts compound in water (92.5 parts) and diethylene glycol (7.5 parts)
[4] = plain paper, thermal ink jet, ink composition not stated
[5] = acid, neutral or alkaline paper, thermal ink jet printing machine, ammonium salt

O=C(O)c1cccc(N=Nc2ccc(N=Nc3c(S(=O)(=O)O)cc4ccc(Nc5cccc(C(=O)O)c5)cc4c3O)c3cc(S(=O)(=O)O)ccc23)c1 [Example 6]
water fastness of printed image ([1]; plain paper, thermal ink jet): very high water fastness
shade of printed image [2, 3]: attractive deep black shade

Cc1ccc(C(=O)O)cc1N=Nc1ccc(N=Nc2c(S(=O)(=O)O)cc3ccc(Nc4ccc(C(=O)O)cc4)cc3c2O)c2ccccc12 [Example 7]
water fastness / resistance to water of printed image [1, 4]: very high water fastness
shade of printed image [2, 4]: deep black shade

O=C(O)c1ccc(N=Nc2ccc(N=Nc3c(S(=O)(=O)O)cc4ccc(Nc5cccc(C(=O)O)c5)cc4c3O)c3ccccc23)cc1 [Example 3]
water fastness of printed image ([1]; plain paper, thermal ink jet): very high water fastness
shade of printed image [2, 3]: attractive deep black shade

O=C(O)c1ccc(Nc2ccc3cc(S(=O)(=O)O)c(N=Nc4ccc(N=Nc5cccc(C(=O)O)c5)c5ccccc45)c(O)c3c2)cc1 [Example 1]
resistance to water of printed image [1, 5]: very high resistance to water
shade of printed image [2, 5]: deep black shade

O=C(O)c1ccc(Nc2ccc3cc(S(=O)(=O)O)c(N=Nc4ccc(N=Nc5cccc(C(=O)O)c5)c5ccc(S(=O)(=O)O)cc45)c(O)c3c2)cc1 [Example 4]
water fastness of printed image ([1]; plain paper, thermal ink jet): very high water fastness
bronzing of printed image [2, 3]: no bronzing
shade of printed image [2, 3]: deep neutral black shade
